No constants are given. Whether binding was seen depends on the method and setting. Binding seen in cells or lysates may run through a third protein. Some results given as binding are weak or reduced against the parent protein; the word gives no strength. Tags and fused reporters may be left off the sequences shown.
B1: FLAG-tagged Samd11 (protein, UniProt Q1RNF8 1-542)
chain: MPEHPRHCDFQRGNVEIGLGPGGDLLGKRLSCPCITSHCSSEKKARSKDPQATSLLPELESTMAPEDHYHQLMSALSEASSFEETQRLYHLGIPSHDLLRVRQEVATATLRGPSGLEVHLPSSTADHRRKQGLVQRREGAVPAAATSFSEREMSQPPPLLSPQNAAHITMSSHLRPPFLGMPTAVCQTPGFSFLPSAQAEMLARQQELLRKQSLARLEMSELLRQKELGSVHRPLLPAPEVALHIPEGPDELQRRGSMLVLKHSSAPLLALPPQGPPGPGPPIPPKESARSRSEKGSLGVQPSQPKETTGAGLWAQEVSEEPSKDSDGEDPETAAAREGTSTPSQVPAGGTRAEGRGLLSGSTLPPPLPLGFPCGAVSPYFHTGTMGGLFTDEETTTLEDVNKWTVDDVCNFVGGLSGCGEYARVFGEQGIDGETLPLLTEEHLLNTMGLKLGPALKIRAQVAKRLGRVFYMASFPVALPLQPPSLQAPELSPGHQPLSPATTTSPYEGTHLPTGQASPKQENGSGTIALLSGAPDPSQLLQ
B2: HA-tagged Samd7 (protein, UniProt Q8C8Y5 1-445)
chain: MTNPMMSVSSLLTSGQQKVPMVPSPFGPPIVDRDVLSSSIAPTDPSQFCVPSQFGSSGLPNANMPNPLSSHFYSGWGILPPEPIKAVTTRNEMFERHHAARAEMEMYSLYQQRRMERVNPKGLSGLGIPLFYGSSCLGGPTGFQGRSTLPASDVHLHRSTFRHLQGNPILLATRPHFTECWGQKYRLRRGAVYQKPPESDTESFKSQAEEKSSSQMPTLSYEEEEYIKDPDIEVDNQQKPRVADGKPTTVPANPHGELHTHQRKPSSLEANAWDDGKGKPSEQVYEGCDGKNGVFRPVSILPLSGTHEQVALRENCSLSDIQKWTVDDVYNFIRSLPGCSDYAQVFKDHAIDGETLPLLTEQHLRGTMGLKLGPALKIQSQVSQHVGNMFCKKLPSLPTHARQAFDQPADTSPLLDMSSWSDGLSIPGPQDLLSPKRTEQDVMRN
B3: HA-tagged Phc2 (protein, UniProt Q9QWH1 1-850)
chain: MENELPVPHTSNRASVTTNTSGTNSSSGCISSSGGGGGSGGRPTAPQISVYSGIPDRQTVQVIQQALHRQPSTAAQYLQQMYAAQQQHLMLQTAALQQQHLSSAQLQSLAAVQQASLVANRQGSTPGSSVSSQAPAQSSSLNLAASPAAAQLINRAQSVNSAAASGLAQQAVLLGNTSSPALTASQAQMYLRAQMLIFTPTATVATVQPELCTGSPARPPTPAQVQNLTLRTQQTPAAAASGPPPTQPVLPSLALKPTPSSSQPLPAPPQGRTMAQGSPAGAKPSGTDNAPETLKAGDGNCNMEGRPGPGRAVPAVATHPLIAPAYAHLQSHQLLPQPPAKHPQPQFVAQQQPQPPRPAPQVQSQPQLASVSPSLALQSSPEDHALPLGSVTQALPLQCSTTHVHKPGNSQQCHLPTLDTGSQNGHPEGGSHPPQRRFQHTSAVILQVQPASPVTPQQCAPDDWKEVVPAEKSVPVARPGPSPHQQAIIPAIPGGLPGPKSPNIQQCPAHETGQGIVHALTDLSSPGMTSGNGNSASSIAGTAPQNGENKPPQAIVKPQILTHVIEGFVIQEGAEPFPVGRSSLLVGNLKKKYAQGFLPEKPPQQDHTTTTDSEMEEPYLQESKEEGTPLKLKCELCGRVDFAYKFKRSKRFCSMACAKRYNVGCTKRVGLFHSDRSKLQKAGTTTHNRRRASKASLPTLTKDTKKQPSGTVPLSVTAALQLAHSQEDSSRCSDNSSYEEPLSPISASSSTSRRRQGQRDLDLPDMHMRDLVGVGHHFLPSEPTKWNVEDVYEFIRSLPGCQEIAEEFRAQEIDGQALLLLKEDHLMSAMNIKLGPALKIYARISMLKDS

Target: T1, FLAG-tagged Samd11 (mouse) (UniProt Q1RNF8)
T1 sequence: B1 chain
Assay: co-IP; HEK293 cells co-transfected with FLAG-Samd11 and an HA-tagged partner for 48 h; lysate in IP250 buffer (20 mM HEPES, 10% glycerol, 250 mM NaCl, 0.2 mM EDTA, 1 mM DTT), sonicated; anti-FLAG M2 affinity gel overnight at 4 C; eluted with FLAG peptide; western blot

| Binder | binding |
| --- | --- |
| B1 | binds |
| B2 | binds |
| B3 | binds |

Source: paper PMC7892874
